In article PMC11531844:
No constants are given. Whether binding was seen depends on the method and setting. Some entries that bind do so weakly or less than the wild type.

Sequences of proteins named here, by UniProt entry; tags and fusion partners are left off.
UniProt P12849: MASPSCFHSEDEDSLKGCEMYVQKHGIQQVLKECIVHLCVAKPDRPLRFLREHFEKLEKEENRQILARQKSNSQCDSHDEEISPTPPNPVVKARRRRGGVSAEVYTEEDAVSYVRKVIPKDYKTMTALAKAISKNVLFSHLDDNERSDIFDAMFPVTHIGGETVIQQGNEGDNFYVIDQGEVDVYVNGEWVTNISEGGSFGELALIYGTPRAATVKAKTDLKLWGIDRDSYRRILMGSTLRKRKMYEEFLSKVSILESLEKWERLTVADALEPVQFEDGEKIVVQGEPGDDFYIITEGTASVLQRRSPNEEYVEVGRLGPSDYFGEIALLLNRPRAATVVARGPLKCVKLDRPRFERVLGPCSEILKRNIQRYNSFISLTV
UniProt Q9DBC7: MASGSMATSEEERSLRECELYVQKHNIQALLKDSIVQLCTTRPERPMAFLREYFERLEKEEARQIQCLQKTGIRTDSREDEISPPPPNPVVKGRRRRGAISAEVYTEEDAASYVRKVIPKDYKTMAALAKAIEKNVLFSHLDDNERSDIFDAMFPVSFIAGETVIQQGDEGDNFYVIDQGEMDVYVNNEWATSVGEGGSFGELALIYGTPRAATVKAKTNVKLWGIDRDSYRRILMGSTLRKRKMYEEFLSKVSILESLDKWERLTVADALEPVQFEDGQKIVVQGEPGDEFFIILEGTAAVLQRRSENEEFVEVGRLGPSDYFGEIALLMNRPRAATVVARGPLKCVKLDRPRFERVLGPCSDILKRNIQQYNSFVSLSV

Experiments:
[1] = target: PKA regulatory subunit RIβ, endogenous, wild-type mouse brain (mouse (endogenous in brain tissue)) (UniProt P12849); assay: non-reducing SDS-PAGE with immunoblot; soluble fractions of brain lysates from young (3-4 months) and old (16-20 months) WT or L50R heterozygous mice, non-reduced gel, blot with RIβ-specific or RIα-specific antibody
[2] = target: PKA regulatory subunit RIα, endogenous, mouse brain (mouse (endogenous in brain tissue)) (UniProt Q9DBC7); assay: as above

Row | binding [1] | binding [2] | Substance
1 | binds | – | PKA regulatory subunit RIβ, endogenous, wild-type mouse brain (from UniProt P12849 1-381)
2 | – | binds | PKA regulatory subunit RIα, endogenous, mouse brain (from UniProt Q9DBC7 1-381)
